No constants are given. Whether binding was seen depends on the method and setting. Binding seen in cells or lysates may run through a third protein. Some binding calls cover weakened binding; strength is not graded here.
Biological target: SMN (human (endogenous in HeLa)), Q16637
Assay: co-IP; SMN complex precipitated from cell lysate (1xPBS, 0.01% NP-40, 2.5 mM MgCl2) with anti-SMN antibody 7B10 covalently coupled to ProteinG-Sepharose, 3 h at 4 °C; beads analysed by SDS-PAGE with Coomassie staining or western blotting; cells mock treated or treated with dTAG13 (0.5 uM, 72 h) to degrade Gemin3
Settings: remark: other sources report otherwise

B1: Gemin4, P57678 1-1058 (protein)
chain: MDLGPLNICEEMTILHGGFLLAEQLFHPKALAELTKSDWERVGRPIVEALREISSAAAHSQPFAWKKKALIIIWAKVLQPHPVTPSDTETRWQEDLFFSVGNMIPTINHTILFELLKSLEASGLFIQLLMALPTTICHAELERFLEHVTVDTSAEDVAFFLDVWWEVMKHKGHPQDPLLSQFSAMAHKYLPALDEFPHPPKRLRSDPDACPTMPLLAMLLRGLTQIQSRILGPGRKCCALANLADMLTVFALTEDDPQEVSATVYLDKLATVISVWNSDTQNPYHQQALAEKVKEAERDVSLTSLAKLPSETIFVGCEFLHHLLREWGEELQAVLRSSQGTSYDSYRLCDSLTSFSQNATLYLNRTSLSKEDRQVVSELAECVRDFLRKTSTVLKNRALEDITASIAMAVIQQKMDRHMEVCYIFASEKKWAFSDEWVACLGSNRALFRQPDLVLRLLETVIDVSTADRAIPESQIRQVIHLILECYADLSLPGKNKVLAGILRSWGRKGLSEKLLAYVEGFQEDLNTTFNQLTQSASEQGLAKAVASVARLVIVHPEVTVKKMCSLAVVNLGTHKFLAQILTAFPALRFVEEQGPNSSATFMVSCLKETVWMKFSTPKEEKQFLELLNCLMSPVKPQGIPVAALLEPDEVLKEFVLPFLRLDVEEVDLSLRIFIQTLEANACREEYWLQTCSPFPLLFSLCQLLDRFSKYWQLPKEKRCLSLDRKDLAIHILELLCEIVSANAETFSPDVWIKSLSWLHRKLEQLDWTVGLRLKSFFEGHFKCEVPATLFEICKLSEDEWTSQAHPGYGAGTGLLAWMECCCVSSGISERMLSLLVVDVGNPEEVRLFSKGFLVALVQVMPWCSPQEWQRLHQLTRRLLEKQLLHVPYSLEYIQFVPLLNLKPFAQELQLSVLFLRTFQFLCSHSCRDWLPLEGWNHVVKLLCGSLTRLLDSVRAIQAAGPWVQGPEQDLTQEALFVYTQVFCHALHIMAMLHPEVCEPLYVLALETLTCYETLSKTNPSVSSLLQRAHEQRFLKSIAEGIGPEERRQTLLQKMSSF
binding: binds
